# Primary screen of a compound library

Protein sequences, listed by entry. Tags and fused reporters are not part of them. Residues count along the entry.
UniProt A4I591, 1-473: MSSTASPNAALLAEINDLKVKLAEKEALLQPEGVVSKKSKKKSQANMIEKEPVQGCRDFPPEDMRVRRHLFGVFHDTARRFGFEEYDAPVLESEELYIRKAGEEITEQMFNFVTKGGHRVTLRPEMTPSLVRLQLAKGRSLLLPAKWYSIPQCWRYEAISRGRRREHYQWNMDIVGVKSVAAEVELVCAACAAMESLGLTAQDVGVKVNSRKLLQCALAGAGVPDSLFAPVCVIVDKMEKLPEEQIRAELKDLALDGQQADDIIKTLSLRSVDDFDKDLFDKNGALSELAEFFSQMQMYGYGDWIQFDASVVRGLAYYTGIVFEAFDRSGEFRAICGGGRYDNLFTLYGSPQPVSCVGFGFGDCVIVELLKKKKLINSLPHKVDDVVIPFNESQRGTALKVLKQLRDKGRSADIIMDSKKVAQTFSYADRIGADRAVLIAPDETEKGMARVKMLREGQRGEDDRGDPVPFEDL
UniProt P9WFT3, whole entry: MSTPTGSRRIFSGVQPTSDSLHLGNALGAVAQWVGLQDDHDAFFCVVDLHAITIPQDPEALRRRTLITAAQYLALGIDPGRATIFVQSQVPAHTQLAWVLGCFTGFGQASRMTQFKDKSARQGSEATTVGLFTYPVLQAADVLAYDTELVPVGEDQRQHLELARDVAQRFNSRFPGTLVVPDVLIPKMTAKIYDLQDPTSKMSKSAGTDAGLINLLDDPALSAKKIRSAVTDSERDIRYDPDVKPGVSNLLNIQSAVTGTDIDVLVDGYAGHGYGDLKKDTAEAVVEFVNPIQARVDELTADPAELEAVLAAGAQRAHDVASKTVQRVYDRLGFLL

Data taken from ChEMBL document CHEMBL3988442, “University of Dundee, Small-Polar-MMV Screening Library” (2021).

A: 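Enzyme assay of histidyl-tRNA synthetase; the read-out is not stated. Target: Histidine-tRNA ligase, Leishmania infantum (UniProt A4I591). Concentration: 30 µM. The record gives no direction; compounds that gave an IC50 in retests scored well above the rest, so higher reads as stronger inhibition. The assay is labelled LdHisRS but filed under L. infantum. Size under these conditions: about 69,000 compounds, about 410 of them at 50% or above in at least one test.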
B: 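Whole-parasite assay of Trypanosoma brucei over 72 hours; the read-out is not stated. Compounds at 30 µM. Direction is inferred from retests: higher values go with stronger inhibition. Values scatter widely below zero; nearly all retest evidence comes from the higher of the two concentrations used. Size under these conditions: about 64,000 compounds, about 940 of them at 50% or above in at least one test.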
C: 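Enzyme assay of tryptophanyl-tRNA synthetase; the read-out is not stated. Target: Tryptophan-tRNA ligase, Mycobacterium tuberculosis (UniProt P9WFT3). Tested at 10 µM. Higher most likely means stronger inhibition; the record gives no direction and few retests gave an IC50. Of about 65,000 compounds tested this way, about 64 (0.098%) reached 50% or more in at least one test.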

Each number is a percent effect as filed.
How 0% and 100% were set is not recorded. Most values in the screen are low, and negative values occur.
The compounds are a random part of those screened.
A dash means the value is not listed here; it may have been measured.

| # | structure | A | B | C |
|---|---|---|---|---|
| 1 | `CC(C)CS(=O)(=O)N1C[C@H]2C[C@H](C(=O)N(C)C)[C@@H](C1)O2` | 3.774% | - | - |
| 2 | `COC(=O)C1CCN(C(=O)c2cccc(NS(C)(=O)=O)c2C)CC1` | 5.6% | -25.62% | -1.377% |
| 3 | `Cc1noc(CNC(=O)c2ccccc2-n2cc(CN)cn2)n1` | 10% | 4.949% | - |
| 4 | `CN(C(=O)NCc1nccn1Cc1ccccc1)C1CC1` | 7.143% | -31.3% | -0.3589% |
| 5 | `CC(CO)(NC(=O)Nc1nnc(C2CC2)s1)C1CCCCC1` (centres undefined) | 5.263% | 1.315% | 0.8474% |
| 6 | `Cc1nc(CN2CCCC3(CCN(c4cnn(C)c4)C3=O)C2)cs1.O=C(O)C(F)(F)F` (centres undefined) | - | -9.884% | - |
| 7 | `Cc1sc(Oc2ccccc2Cl)nc1C(=O)O` | 1.399% | 1.793% | -2.807% |
| 8 | `Cc1cc(CN(Cc2ccccc2)C2CC2)on1` | 12.39% | - | -0.1434% |
| 9 | `Cc1cnn(CC2CCCCN2C(=O)Cc2ccc(C#N)cc2)c1` (centres undefined) | 9.565% | -5.8% | -10.99% |
| 10 | `CC1CCC(NC(=O)c2nn(C)cc2Br)CC1` (centres undefined) | 3.571% | -26.87% | -2.082% |
| 11 | `CNC(=O)c1cccc(CCNC2CCSc3ccccc32)c1` (centres undefined) | 4.202% | -51.21% | 11.92% |
| 12 | `Cc1noc(C)c1CC(=O)N1CCCN(Cc2cscn2)CC1` | 14.29% | 3.152% | -6.717% |
| 13 | `[H][C@@]12CNC[C@]1([H])N(C(=O)c1ccco1)CCO2` | - | -84.5% | - |
| 14 | `CCC[C@H]1CN(S(=O)(=O)c2c(C)noc2C)C[C@@H]1N` | 21.13% | -42.81% | 0.7064% |
| 15 | `c1ccc2c(c1)CC(N1CCCC(NCc3ccc4nonc4c3)C1)C2` (centres undefined) | 11.2% | -11.41% | 0.4515% |
| 16 | `Cc1cncc(C(=O)N[C@@H]2CC[C@@H](N3CCOCC3)[C@@H]2O)c1` | 10.31% | -22.15% | - |
| 17 | `O=C(NCc1nncn1-c1ccccc1)C1CCCCC1` | 13.16% | -14.19% | -9.04% |
| 18 | `CC(=O)N1CCCC(c2nccnc2-c2ccc(CO)cc2)C1` (centres undefined) | 9.929% | - | -2.732% |
| 19 | `CCS(=O)(=O)CC(=O)Nc1ccc2oc(C3CC3)nc2c1` | -18.31% | -51.48% | -1.514% |
| 20 | `COc1cccc(CNC(=O)c2nc3c(o2)CN(C(=O)N(C)C)C3)c1` | -174.4% | -39.55% | -1.066% |
| 21 | `CN(CCNC(=O)NCc1ccsc1)C1CCCC1` | 4.386% | -3.462% | -0.1412% |
| 22 | `CC(C)c1noc(CN(C)C(c2ccc(F)cc2)c2cccnc2)n1` (centres undefined) | -3.448% | 70.75% | 12.49% |
| 23 | `N#Cc1ccc(S(=O)(=O)NC(=O)C2CC2)c(C(F)(F)F)c1` | 33.33% | 5.538% | 3.991% |
| 24 | `CC(C)c1[nH]c2ncccc2c1CN1CCOCC1` | 8.511% | - | -7.815% |
| 25 | `Cc1nn(C)cc1-c1cc(C(F)F)n2nc(CCC(=O)O)nc2n1` | 16.49% | -8.373% | - |
| 26 | `CC(Nc1ccc(CN2CCCC2=O)cc1)c1ccc(C#N)cc1` (centres undefined) | 21.92% | 0.2119% | -2.961% |
| 27 | `CC(C)c1cc(NC(=O)CN2CCCC2Cn2cccn2)on1` (centres undefined) | 7.576% | 6.875% | 5.361% |
| 28 | `Cc1ccc2c(n1)N(CC1CC1)CCN(C(=O)NC1CC1)C2.O=C(O)C(F)(F)F` | - | -18.5% | - |
| 29 | `Cc1noc2ncc(C(=O)NCC3CCN(C(C)C)C3)cc12` (centres undefined) | 8.8% | -25.45% | -0.7862% |
| 30 | `Cn1nc(C2CN(C(=O)c3cccnc3)C2)c2nccnc21` | 23.96% | -19.17% | - |
| 31 | `O=C(O)C(F)(F)F.O=C(O)C(F)(F)F.O=C(O)C(F)(F)F.O=C1NC2(CCN(Cc3cccnc3)CC2)CC1c1cccnc1` (centres undefined) | - | -5.273% | - |
| 32 | `CCO[C@H]1CN(CC2CCOCC2)[C@@H]2CCCO[C@H]12` | 7.921% | - | - |
| 33 | `Cc1cccc(S(=O)(=O)NCC(C)(C)CC(C)O)c1C#N` (centres undefined) | 11.76% | 0.6298% | -5.055% |
| 34 | `O=C(Nc1nc(-c2ccccc2)ns1)N1CCN(C(=O)C2CC2)CC1` | 14.47% | -180.3% | -5.692% |
| 35 | `Cc1cnn(CC2CCCN2Cc2nnc(-c3ccccc3)o2)c1` (centres undefined) | 10.71% | 0.9506% | -1.71% |
| 36 | `CCCc1nc(C(C)(C)NC(=O)C2CC(=O)N(CC)C2)no1` (centres undefined) | 12.73% | -20.66% | -8.087% |
| 37 | `COC(=O)c1occc1Cn1cc(Br)cn1` | 17.33% | -2.276% | 0.6256% |
| 38 | `COc1ncccc1CNCc1c(C)nn(C)c1N1CCOCC1` | 4.425% | - | -5.392% |
| 39 | `Cc1noc(C)c1C(=O)N1Cc2ncn(C)c2C(COCC(C)C)C1` (centres undefined) | -69.37% | - | - |
| 40 | `Cc1nc(C(Cc2ccsc2)NC(=O)CCN2CCOCC2)sc1C` (centres undefined) | 8.451% | -20.42% | -4.485% |
| 41 | `CC(C)NC(=O)Nc1ccc(-c2nc3c([nH]2)CCNC3)cc1` | 17.78% | 6.805% | 0.8642% |
| 42 | `CNC(=O)[C@H]1C[C@@H]2CCN(Cc3ccncc3)C[C@H]2O1` | 4.167% | - | 0.08865% |
| 43 | `Cc1cccc(-c2c[nH]c(C3CCCN3)n2)c1` (centres undefined) | 9.859% | - | -3.33% |
| 44 | `CO[C@H]1CN(c2ccccc2)S(=O)(=O)[C@@]12CCN(Cc1ccccc1)C2` | -4.082% | -21.84% | - |
| 45 | `N#Cc1cccc(N2CCC3(CC2)Nc2ccccc2NC3=O)n1` | 22.92% | 1.618% | 5.936% |
| 46 | `Cc1cc(O)n(-c2ccc3nnc(C)n3n2)n1` | 20% | -26.58% | -1.085% |
| 47 | `Cn1nc(C(=O)N2CCSCC2)cc1NC(=O)c1ccco1` | 11.9% | -25.27% | 0.144% |
| 48 | `[H][C@]12CC[C@]([H])(CN(Cc3ccccc3)C1)N(C(=O)c1ccccc1C#N)C2` | - | -3.093% | - |
| 49 | `CCc1nnc2n1CCN(Cc1csc(NC(C)=O)n1)C2` | 6.25% | -13.65% | -3.888% |
| 50 | `Cc1ncc2c(n1)C1(CCN(C(=O)C(C)C)CC1)OCC2.Cl` | - | -4.848% | - |

Some entries from above, unchanged:

| structure | A | B | C |
|---|---|---|---|
| `N#Cc1ccc(S(=O)(=O)NC(=O)C2CC2)c(C(F)(F)F)c1` | 33.33% | 5.538% | 3.991% |
| `Cc1noc(CNC(=O)c2ccccc2-n2cc(CN)cn2)n1` | 10% | 4.949% | - |
| `O=C(Nc1nc(-c2ccccc2)ns1)N1CCN(C(=O)C2CC2)CC1` | 14.47% | -180.3% | -5.692% |